This passage reports survivor count and T/C results from PubChem BioAssay AID192 (DTP/NCI, 2004).

The list does not hold the whole screen: it is rich in T/C values a quarter to a half above the control, in often repeated tests (any T/C) and in doses without a T/C. Other doses and runs of a compound stand elsewhere. T/C gives the treated animals as a percentage of the vehicle group. Some entries give survivors of the animals treated and no T/C: the source holds a T/C of zero for them, seemingly a mark for toxic or unscored doses. Some doses without a T/C left all or most animals alive at the check, yet need not have been tolerated: the source hardly ever lists a survival T/C far under the control, and the zero likely stands for such cases as well. Survivors were counted at the toxicity check, usually on the fifth day, unless a day is given; later deaths do not show. Schedule codes are those of the source, taken here to give the interval after Q, in days (D) or hours (H), and the number of doses after X. Some entries hold several experiments; the results are listed from low to high. For survival time, this PubChem deposit counts one and a half times the control or more as active, and values a quarter to a half above the control carry no call in these data; other NCI protocols may use other cut-offs. Some T/C values are followed by the survivors on the day toxicity was checked, most often the fifth; without a count, all were alive then.

The assay relates to BDF1 mice, B16 melanoma ip, median survival T/C. The assay is described as follows: NCI In Vivo Anticancer Drug Screen. Data for tumor model B16 Melanoma (intraperitoneal) in B6D2F1 (BDF1) mice. The following applies: T/C endpoint: median survival time, higher T/C = longer survival. The method in brief: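 Vehicle-treated animals serve as the reference (C); treated animals (T) are scored for survival or tumor size after tumor transplantation.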

Setting [1] is: dose: 200.0 mg/kg/injection, schedule: Q01DX009 (ip), vehicle: saline with Tween-80.
Setting [2] is: dose: 400.0 mg/kg/injection, schedule: Q01DX009 (ip), vehicle: saline with Tween-80.
Setting [3] is: dose: 200.0 mg/kg/injection, schedule: Q01DX009 (ip), vehicle: Klucel (hydroxypropylcellulose) (HPC).
Where [4] appears, read: dose: 50.0 mg/kg/injection, schedule: Q01DX009 (ip), vehicle: Klucel (hydroxypropylcellulose) (HPC).
Where [5] appears, read: dose: 100.0 mg/kg/injection, schedule: Q01DX009 (ip), vehicle: Klucel (hydroxypropylcellulose) (HPC).
Setting [6] is: dose: 400.0 mg/kg/injection, schedule: Q01DX009 (ip), vehicle: saline.
The mark [7] stands for this setting: dose: 200.0 mg/kg/injection, schedule: Q01DX009 (ip), vehicle: saline.

As to `CCOC(=O)C1=C(C)O/C(=C/c2cccc(Cl)c2)C1=O`, the survivor count (dose: 100.0 mg/kg/injection, schedule: Q01DX009 (ip), vehicle: saline with Tween-80) was 10 of 10; the survivor count under setting [1] is on record as 0 of 10; the survivor count under setting [2] is reported as 0 of 10.
On to `COC(=O)/C=C/N1C(=O)c2ccccc2C1=O`, for which the T/C under setting [3] was 132 % of control [9 of 10 alive].
On to `O=S(=O)(c1ccccc1)N1CN2CCN(C2)C1`, for which the survivor count under setting [2] was 9 of 10.
For the compound `COc1cccc2c1C(=O)c1c(O)c3c(c(O)c1C2=O)CC(O)(/C(C)=N/NC(=O)CCC(=O)N/N=C(\C)C1(O)Cc2c(O)c4c(c(O)c2C(OC2CC(N)C(O)C(C)O2)C1)C(=O)c1c(OC)cccc1C4=O)CC3OC1CC(N)C(O)C(C)O1` (stereo unspecified), the T/C runs as follows: (dose: 2.0 mg/kg/injection, schedule: Q01DX001 (ip), vehicle: water) 128 % of control; (dose: 4.0 mg/kg/injection, schedule: Q01DX001 (ip), vehicle: water) 140 % of control; (dose: 16.0 mg/kg/injection, schedule: Q01DX001 (ip), vehicle: water) 146 % of control. The survivor count was 10 of 10 (dose: 64.0 mg/kg/injection, schedule: Q01DX001 (ip), vehicle: water) and 3 of 10 (dose: 128.0 mg/kg/injection, schedule: Q01DX001 (ip), vehicle: water).
As for `C=C1C(=O)OC2C1C(OC(=O)/C(C)=C/COC(C)=O)CC1(CO1)C1C(O)C=C(C)C21` (stereo unspecified), the survivor count (dose: 50.0 mg/kg/injection, schedule: Q01DX009 (ip), vehicle: other) is listed as 6 of 10.
In the case of `O=C1N(Cl)C(=O)C(c2ccc(Cl)cc2)(c2ccc(Cl)cc2)N1Cl`, the survivor count is 9 of 10 under setting [4] and 9 of 10 under setting [5].
As for `S=P(NCCNP(=S)(N1CC1)N1CC1)(N1CC1)N1CC1`, the survivor count is, setting by setting: under setting [4], 10 of 10; under setting [5], 10 of 10.
Take `CN(/N=N/c1nc[nH]c1C(N)=O)C1CCCCC1`: the T/C by setting is: (dose: 12.5 mg/kg/injection, schedule: Q01DX009 (ip), vehicle: carboxymethylcellulose (CMC)) 135 % of control; (dose: 25.0 mg/kg/injection, schedule: Q01DX009 (ip), vehicle: carboxymethylcellulose (CMC)) 135 % of control. The survivor count is 5 of 6 (dose: 100.0 mg/kg/injection, schedule: Q01DX009 (ip), vehicle: carboxymethylcellulose (CMC)) and 5 of 6 (dose: 200.0 mg/kg/injection, schedule: Q01DX009 (ip), vehicle: carboxymethylcellulose (CMC)).
Consider `O=c1[nH]c2ccccc2nc1CBr`, for which the survivor count (dose: 6.25 mg/kg/injection, schedule: Q01DX009 (ip), vehicle: saline with Tween-80) is listed as 6 of 6; the survivor count (dose: 12.5 mg/kg/injection, schedule: Q01DX009 (ip), vehicle: saline with Tween-80) is reported as 5 of 6; the survivor count (dose: 25.0 mg/kg/injection, schedule: Q01DX009 (ip), vehicle: saline with Tween-80) is given as 1 of 6; the survivor count (dose: 50.0 mg/kg/injection, schedule: Q01DX009 (ip), vehicle: saline with Tween-80) is 0 of 6.
Regarding `NC(CCl)=NCC12CC3CC(CC(C3)C1)C2`, the T/C is 134 % of control (dose: 6.25 mg/kg/injection, schedule: Q01DX009 (ip), vehicle: Klucel (hydroxypropylcellulose) (HPC)) and 133 % of control (dose: 12.5 mg/kg/injection, schedule: Q01DX009 (ip), vehicle: Klucel (hydroxypropylcellulose) (HPC)).
On to `COc1cc2ccc(C(C)N)cc2cc1OC` (stereo unspecified), for which the survivor count under setting [6] is listed as 0 of 10.
Consider `CCCC(=O)OC1C=C2N3C(=O)C4CC56C(=CC(OC(C)=O)C7OC75)N4C(=O)C3CC26C2OC12` (stereo unspecified), for which the survivor count is listed as 10 of 10 (dose: 1.0 mg/kg/injection, schedule: Q01DX009 (ip), vehicle: Klucel (hydroxypropylcellulose) (HPC)) and 10 of 10 (dose: 2.0 mg/kg/injection, schedule: Q01DX009 (ip), vehicle: Klucel (hydroxypropylcellulose) (HPC)).
Turning to `[Cl][Mn][Cl]`, the T/C runs as follows: (dose: 17.8 mg/kg/injection, schedule: Q01DX009 (ip), vehicle: saline) 125 % of control; (dose: 17.8 mg/kg/injection, schedule: Q01DX009 (ip), vehicle: water) 135 % of control; (dose: 26.7 mg/kg/injection, schedule: Q01DX009 (ip), vehicle: water) 128 % of control; (dose: 40.0 mg/kg/injection, schedule: Q01DX009 (ip), vehicle: water) 139 % of control. The survivor count by setting is: (dose: 90.0 mg/kg/injection, schedule: Q01DX009 (ip), vehicle: saline) 5 of 10 and 8 of 10; (dose: 90.0 mg/kg/injection, schedule: Q01DX009 (ip), vehicle: water) 9 of 10; (dose: 100.0 mg/kg/injection, schedule: Q01DX009 (ip), vehicle: water) 9 of 10; (dose: 135.0 mg/kg/injection, schedule: Q01DX009 (ip), vehicle: saline) 0 of 10; (dose: 135.0 mg/kg/injection, schedule: Q01DX009 (ip), vehicle: water) 2 of 10; (dose: 135.0 mg/kg/injection, schedule: Q01DX009 (sc), vehicle: water) 6 of 10. Besides, the survivor count (dose: 202.5 mg/kg/injection, schedule: Q01DX009 (sc), vehicle: water) is reported as 2 of 10.
With `CS(=O)(=O)OCC(=O)NCC(O)CNC(=O)COS(C)(=O)=O`, the survivor count under setting [2] was 3 of 10.
As to `COc1cc2cc(c1Cl)N(C)C(=O)CC(OC(=O)C(C)N(C)C(=O)C(C)C)C1(C)OC1C(C)C1CC(O)(NC(=O)O1)C(OC)/C=C/C=C(C)C2` (stereo unspecified), the T/C (dose: 1.3 micrograms/kg/injection, schedule: Q01DX009 (ip), vehicle: saline + alcohol) is 126 % of control and the T/C (dose: 2.5 micrograms/kg/injection, schedule: Q01DX009 (ip), vehicle: saline + alcohol) is 145 % of control.
For `CC(C)c1ccc(C(O)C2CC2)cc1` (stereo unspecified), under setting [1], the survivor count is reported as 4 of 10.
For `CCOCCCN`, under setting [7], the survivor count is recorded as 6 of 10.
Regarding `O=C(NC(Cc1ccccc1)C(=O)NC(Cc1c[nH]c2ccccc12)C(=O)O)OCc1ccccc1` (stereo unspecified), under setting [2], the survivor count is recorded as 9 of 10.
Take `CCC(=O)O[C@H]1CC[C@H]2[C@@H]3CCC4=CC(=O)CC[C@]4(C)[C@H]3CC[C@]12C`: the survivor count (dose: 160.0 mg/kg/injection, schedule: Q02DX009 (ip), vehicle: Klucel (hydroxypropylcellulose) (HPC)) is 10 of 10 and the survivor count (dose: 640.0 mg/kg/injection, schedule: Q02DX009 (ip), vehicle: Klucel (hydroxypropylcellulose) (HPC)) is 10 of 10.
For `CC(=O)O[C@@H]1CO[C@H]2O[C@H]3[C@@H](C(C=O)=C[C@H](O)[C@@H]4C5=C(C(C)C)CC[C@]5(C)CC[C@@]34C)[C@@]2(O)C1=O`, the survivor count reads like this: (dose: 1.5 mg/kg/injection, schedule: Q01DX009 (ip), vehicle: Klucel (hydroxypropylcellulose) (HPC)) 10 of 10; (dose: 3.0 mg/kg/injection, schedule: Q01DX009 (ip), vehicle: Klucel (hydroxypropylcellulose) (HPC)) 9 of 10; (dose: 6.0 mg/kg/injection, schedule: Q01DX009 (ip), vehicle: Klucel (hydroxypropylcellulose) (HPC)) 3 of 10; (dose: 12.0 mg/kg/injection, schedule: Q01DX009 (ip), vehicle: Klucel (hydroxypropylcellulose) (HPC)) 4 of 10; (dose: 24.0 mg/kg/injection, schedule: Q01DX009 (ip), vehicle: Klucel (hydroxypropylcellulose) (HPC)) 0 of 10; (dose: 25.0 mg/kg/injection, schedule: Q01DX009 (ip), vehicle: Klucel (hydroxypropylcellulose) (HPC)) 2 of 10. For the same compound, the survivor count under setting [4] is on record as 0 of 10.
Consider `CCOC(=O)C1C2OC(=O)C(C(=O)C2CN(CCCl)CCCl)C1C1CC=C(CC2=CCC(C3C4C(=O)OC(C(CN(CCCl)CCCl)C4=O)C3C(=O)OCC)CC2)CC1` (stereo unspecified), for which, under setting [4], the T/C was 140 % of control. For the same compound, the survivor count by setting is: under setting [3], 10 of 10; under setting [1], 8 of 10; (dose: 400.0 mg/kg/injection, schedule: Q01DX009 (ip), vehicle: Klucel (hydroxypropylcellulose) (HPC)) 10 of 10.
As for `NC1(c2ccccc2)CCCCC1`, the survivor count is 0 of 10 (dose: 100.0 mg/kg/injection, schedule: Q01DX009 (ip), vehicle: saline); 0 of 10 under setting [7]; 0 of 10 under setting [6].
